Experimental findings from article PMC7862700 are described below.

The entries are a selection whose mix differs from that of the whole data set. At the low end of the ranking the order means little.

What all share (experiment): DAPPL (digital affinity profiling via proximity ligation, sequencing)
Common to all, as to details: 10 mM Tris-HCl pH 7.5, 50 mM NaCl, 1 mM DTT, 4% glycerol, room temperature, 30 min; GST-TFs on glutathione beads, 16-mer random dsDNA library, 0.1% …; high values mean tight binding; double strand, one strand shown; scale: fold enrichment (6-mer frequency, TF over GST control)

One experiment has as its target T1, ELK1 (UniProt P19419).
T1 sequence: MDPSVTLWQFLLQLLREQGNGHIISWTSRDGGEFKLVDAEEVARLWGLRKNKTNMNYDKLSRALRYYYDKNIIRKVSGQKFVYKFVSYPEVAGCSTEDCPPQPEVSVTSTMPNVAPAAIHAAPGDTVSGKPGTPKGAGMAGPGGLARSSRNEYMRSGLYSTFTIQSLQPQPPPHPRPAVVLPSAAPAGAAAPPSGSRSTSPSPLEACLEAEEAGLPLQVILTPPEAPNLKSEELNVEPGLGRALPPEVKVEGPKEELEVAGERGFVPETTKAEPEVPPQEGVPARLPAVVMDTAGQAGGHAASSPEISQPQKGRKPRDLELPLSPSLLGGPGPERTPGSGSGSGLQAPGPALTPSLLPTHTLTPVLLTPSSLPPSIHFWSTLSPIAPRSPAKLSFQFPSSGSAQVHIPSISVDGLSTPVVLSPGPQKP

Another experiment deals with T2, ELK3 (UniProt P41970).
T2 sequence: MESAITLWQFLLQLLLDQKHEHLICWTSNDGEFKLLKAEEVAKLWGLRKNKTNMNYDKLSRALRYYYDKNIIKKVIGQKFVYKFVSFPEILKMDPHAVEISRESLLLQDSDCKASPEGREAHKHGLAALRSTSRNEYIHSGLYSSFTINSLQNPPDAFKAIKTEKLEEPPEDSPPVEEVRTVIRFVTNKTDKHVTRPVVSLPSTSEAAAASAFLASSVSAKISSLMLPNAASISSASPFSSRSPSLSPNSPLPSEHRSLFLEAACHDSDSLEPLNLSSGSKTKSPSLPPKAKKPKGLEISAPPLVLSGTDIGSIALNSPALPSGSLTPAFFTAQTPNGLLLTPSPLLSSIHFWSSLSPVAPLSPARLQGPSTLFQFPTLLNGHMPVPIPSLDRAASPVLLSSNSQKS

The next experiment deals with T3, SPIC (UniProt Q8N5J4).
T3 sequence: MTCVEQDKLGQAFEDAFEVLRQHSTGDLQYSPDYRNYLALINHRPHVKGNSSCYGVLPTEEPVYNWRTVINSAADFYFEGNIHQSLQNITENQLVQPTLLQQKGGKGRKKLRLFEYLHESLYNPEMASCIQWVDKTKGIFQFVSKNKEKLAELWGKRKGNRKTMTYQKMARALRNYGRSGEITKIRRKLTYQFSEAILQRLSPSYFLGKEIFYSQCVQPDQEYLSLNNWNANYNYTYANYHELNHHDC

The target in a further experiment is T4, ETS2 (UniProt P15036).
T4 sequence: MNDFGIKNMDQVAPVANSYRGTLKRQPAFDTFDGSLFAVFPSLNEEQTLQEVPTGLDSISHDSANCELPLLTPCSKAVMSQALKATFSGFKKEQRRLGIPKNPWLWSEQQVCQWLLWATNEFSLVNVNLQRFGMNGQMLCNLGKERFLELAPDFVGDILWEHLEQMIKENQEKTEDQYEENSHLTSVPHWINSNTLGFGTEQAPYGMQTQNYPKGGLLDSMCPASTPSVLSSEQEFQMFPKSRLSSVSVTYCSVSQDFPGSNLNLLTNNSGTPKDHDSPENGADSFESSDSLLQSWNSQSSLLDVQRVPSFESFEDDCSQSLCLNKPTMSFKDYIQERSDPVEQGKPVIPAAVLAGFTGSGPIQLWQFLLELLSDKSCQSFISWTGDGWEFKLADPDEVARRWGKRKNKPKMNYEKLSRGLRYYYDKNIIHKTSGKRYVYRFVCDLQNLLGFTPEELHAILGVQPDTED

The target in a further experiment is T5, ETV3 (UniProt P41162-2).
T5 sequence: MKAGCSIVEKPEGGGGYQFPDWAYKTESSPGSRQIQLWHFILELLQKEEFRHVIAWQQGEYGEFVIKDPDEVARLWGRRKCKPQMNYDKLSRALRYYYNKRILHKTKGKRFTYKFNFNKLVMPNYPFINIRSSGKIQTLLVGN

Take CCGCGA: the binding signal in the experiment with ELK1 worked out at 0.756; in the experiment with ELK3, 0.703; in the experiment with SPIC, 0.62; in the experiment with ETS2, 0.723; with ETV3, 0.746.
The matching figures for GTAAGG: 0.721, 0.862, 0.786, 0.776 and 0.799.
The matching figures for CGTCAG: 0.936, 0.821, 0.737, 0.857 and 0.785.
The matching figures for ACAGGG: 0.814, 0.755, 0.642, 0.788 and 0.823.
With GGTGGC, the binding signal was 0.712 with ELK1; 0.927 in the experiment with ELK3; 0.734 with SPIC; 0.718 in the experiment with ETS2; 0.694 with ETV3.
In the case of TACAGT, the binding signal with ELK1 was determined as 0.893; in the experiment with ELK3 it was 0.85; with SPIC it was 0.851; with ETS2, 0.878; with ETV3, 0.86.
The matching figures for AGATAG: 0.766, 0.881, 0.925, 0.835 and 0.845.
Consider GGTAAG, for which the binding signal in the experiment with ELK1 amounted to 0.776; with ELK3, 0.721; in the experiment with SPIC, 0.687; in the experiment with ETS2 it was 0.76; with ETV3, 0.712.
Consider TGAGTT, for which the binding signal with ELK1 was 0.412; with ELK3, 0.423; with SPIC, 0.448; in the experiment with ETS2, 0.397; with ETV3 it was 0.403.
The matching figures for GACATA: 0.761, 0.947, 0.823, 0.898 and 0.862.
On to GCAGTA, for which the binding signal with ELK1 is 0.903; with ELK3, 0.968; with SPIC, 0.815; with ETS2, 0.898; with ETV3 it was 0.82.
The matching figures for CGCATG: 0.641, 0.59, 0.664, 0.665 and 0.66.
In the case of TGTGTA, the binding signal with ELK1 came out at 0.873; with ELK3, 0.914; in the experiment with SPIC, 0.882; in the experiment with ETS2 it was 0.889; in the experiment with ETV3, 0.874.
The matching figures for GGATCG: 0.563, 0.657, 0.63, 0.534 and 0.571.
The matching figures for GGGGAA: 0.722, 0.743, 0.873, 0.719 and 0.71.
The matching figures for GAACGC: 0.797, 0.781, 0.855, 0.735 and 0.733.
In the case of GGTGGA, the binding signal came out at 0.626 with ELK1; 0.583 with ELK3; 0.677 with SPIC; 0.609 with ETS2; 0.565 in the experiment with ETV3.
In the case of GGGTTA, the binding signal with ELK1 amounted to 0.843; with ELK3 it was 0.796; with SPIC, 0.855; with ETS2, 0.871; with ETV3, 0.904.
The matching figures for GCGTGA: 0.269, 0.276, 0.247, 0.263 and 0.272.
The matching figures for AGTAGA: 0.771, 0.738, 0.805, 0.793 and 0.749.
The matching figures for TCGGAG: 0.194, 0.195, 0.204, 0.19 and 0.179.
In the case of GCAGGC, the binding signal in the experiment with ELK1 turned out to be 0.691; in the experiment with ELK3 it was 0.763; with SPIC, 0.731; in the experiment with ETS2 it was 0.694; with ETV3 it was 0.666.
CGGTTG: the binding signal in the experiment with ELK1 worked out at 0.824; in the experiment with ELK3, 0.883; with SPIC it was 0.712; with ETS2 it was 0.765; with ETV3, 0.77.
With AGTTGG, the binding signal with ELK1 stood at 0.467; with ELK3, 0.538; in the experiment with SPIC, 0.5; in the experiment with ETS2 it was 0.406; with ETV3, 0.495.
With AAGAGA, the binding signal was 0.863 with ELK1; 0.857 with ELK3; 0.874 in the experiment with SPIC; 0.821 with ETS2; 0.826 in the experiment with ETV3.
The matching figures for GCAGGA: 0.792, 0.802, 0.745, 0.894 and 0.768.
The matching figures for GCGGCG: 0.801, 0.798, 0.788, 0.719 and 0.71.
Consider AGGCAA, for which the binding signal amounted to 0.731 with ELK1; 0.723 with ELK3; 0.82 with SPIC; 0.727 in the experiment with ETS2; 0.722 with ETV3.
TAGGAC: the binding signal in the experiment with ELK1 came out at 0.864; with ELK3, 0.867; with SPIC, 0.811; in the experiment with ETS2, 0.929; in the experiment with ETV3 it was 0.905.
As to GTGTCA, the binding signal in the experiment with ELK1 worked out at 0.803; with ELK3, 0.798; with SPIC, 0.844; with ETS2, 0.824; in the experiment with ETV3, 0.822.
The matching figures for TCGGAT: 0.447, 0.504, 0.6, 0.531 and 0.498.
Regarding GTAACG, the binding signal is 0.923 in the experiment with ELK1; 0.886 in the experiment with ELK3; 0.914 with SPIC; 0.922 with ETS2; 0.937 with ETV3.
The matching figures for TCGGAC: 0.363, 0.365, 0.357, 0.338 and 0.379.
The matching figures for ACGGTG: 0.587, 0.544, 0.532, 0.561 and 0.554.
The matching figures for CGCAGG: 0.896, 0.907, 0.758, 0.848 and 0.815.
For the sequence GTTAGA, the binding signal was 0.765 in the experiment with ELK1; 0.736 with ELK3; 0.77 with SPIC; 0.739 in the experiment with ETS2; 0.747 with ETV3.
The matching figures for GAGTGC: 0.728, 0.754, 0.684, 0.658 and 0.683.
The matching figures for AAGAGC: 0.869, 0.877, 0.947, 0.835 and 0.884.
The matching figures for GAGACC: 0.256, 0.214, 0.2, 0.231 and 0.218.
With GCGCAT, the binding signal with ELK1 was found to be 0.867; with ELK3, 0.89; with SPIC it was 0.761; with ETS2 it was 0.855; with ETV3, 0.882.
Regarding AGGACA, the binding signal in the experiment with ELK1 stood at 0.868; with ELK3, 0.838; with SPIC, 0.798; in the experiment with ETS2, 0.853; with ETV3, 0.87.
As to GTTGGG, the binding signal with ELK1 turned out to be 0.673; with ELK3, 0.758; with SPIC it was 0.784; with ETS2, 0.688; with ETV3, 0.601.
For TTGTGA, the binding signal was 0.82 in the experiment with ELK1; 0.683 in the experiment with ELK3; 0.791 with SPIC; 0.839 in the experiment with ETS2; 0.731 with ETV3.
The matching figures for GCAGTG: 0.556, 0.615, 0.566, 0.536 and 0.551.
Take AGTCAC: the binding signal in the experiment with ELK1 came to 0.77; with ELK3 it was 0.741; with SPIC, 0.703; in the experiment with ETS2, 0.756; in the experiment with ETV3, 0.754.
Take AGCCAG: the binding signal with ELK1 was 0.465; with ELK3 it was 0.505; with SPIC, 0.444; with ETS2, 0.442; with ETV3 it was 0.476.
The matching figures for GGGGAG: 0.416, 0.409, 0.458, 0.413 and 0.413.
The matching figures for ACCGTG: 0.235, 0.229, 0.236, 0.23 and 0.237.
Regarding TCGGTT, the binding signal worked out at 0.845 with ELK1; 0.791 in the experiment with ELK3; 0.98 with SPIC; 0.819 in the experiment with ETS2; 0.809 with ETV3.
The matching figures for GACAAT: 0.892, 0.825, 0.852, 0.918 and 0.917.
Regarding AGAAAG, the binding signal with ELK1 is 0.845; with ELK3 it was 0.835; with SPIC it was 0.905; in the experiment with ETS2, 0.902; with ETV3, 0.865.
Take GTAGTA: the binding signal with ELK1 came out at 0.895; with ELK3 it was 0.914; with SPIC it was 1; with ETS2 it was 0.932; with ETV3, 0.965.
The matching figures for GAGGGT: 0.539, 0.494, 0.542, 0.551 and 0.548.
The matching figures for ATAGAG: 0.925, 0.921, 0.937, 0.859 and 0.935.
Consider GTTGAG, for which the binding signal is 0.625 with ELK1; 0.649 with ELK3; 0.729 with SPIC; 0.66 with ETS2; 0.679 with ETV3.
For AGTAGT, the binding signal with ELK1 is 0.877; with ELK3, 0.905; with SPIC, 0.957; in the experiment with ETS2 it was 0.958; in the experiment with ETV3, 0.95.
The matching figures for ACCCAG: 0.714, 0.709, 0.679, 0.691 and 0.687.
The matching figures for ACTAGT: 0.895, 0.933, 0.706, 0.891 and 0.836.
The matching figures for CCATGA: 0.899, 0.843, 0.831, 0.86 and 0.912.
On to ACAGTC, for which the binding signal in the experiment with ELK1 was determined as 0.414; with ELK3 it was 0.386; with SPIC, 0.372; with ETS2, 0.422; with ETV3 it was 0.425.
